Test results: PubChem BioAssay AID445 (National Center for Advancing Translational Sciences (NCATS), 2006)
The other results are listed elsewhere or left out. The main result of the screen is listed elsewhere. These columns were measured beside it and carry no call. The list favours compounds with an active or inconclusive main result. Words in brackets tell the shape of the fitted curve; partial curves, single points and poor fits give uncertain potencies.

Experiment: IkB Signaling
Details: ABC-DLBCL IkBa-CBG/CBR dual luciferase ratio (green luciferase fused to IkBa over red control in OCI-Ly3 lymphoma cells), 4 h; measured here: control luc red channel unless noted
How it was run: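 In this assay, an IκBα–CBG68 fusion accumulates when IKK-driven degradation is blocked; native CBR normalizes for cell number. OCI-Ly3 cells were treated 4 h with compound and doxycycline, then green and red light read after Chroma-Glo addition.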

Structure (SMILES)	AC50
COc1cc(NC(=O)Cn2c(=O)n(CC3CCCO3)c(=O)c3cc(OC)c(OC)cc32)cc(OC)c1 (stereo not given)	39.8 µM [falling, single point]
CCc1ccc(C2CC(=O)N(c3cccc(C(F)(F)F)c3)C3=C2C(=O)OC3)cc1 (stereo not given)	25.1 µM [falling, partial curve]
Cc1ccc(C)c(NC2=C(c3ccc(C(F)(F)F)cc3)C(=O)c3ccccc32)c1	15.8 µM [falling, partial curve]
CCCN1CCCc2cc(CN(CCCN3CCOCC3)C(=O)Nc3ccc(OCC)cc3)ccc21	3.16 µM [falling, single point]
COc1ccc2c(CNC3CCC(C)CC3)c(C(=O)O)n(Cc3ccccc3)c2c1 (stereo not given)	15.8 µM [falling, single point]
COc1ccccc1NC(=O)C1=C(C)Nc2nc(SCc3ccccc3Cl)nn2C1c1cccnc1 (stereo not given)	3.98 µM [falling, partial curve]
N#Cc1cnc2sc3ccccc3n2c1=N	10 µM [falling, partial curve]
Cc1ccc(NC(=O)CN2CCN(C3CCCCC3)C(=O)C2=O)cc1C	7.94 µM [falling, partial curve, poor fit]
CCCN1C(C(=O)c2ccccc2)=C(OC(=O)C(C)(C)C)c2ccccc2S1(=O)=O	10 µM [falling, partial curve]
Cc1ccc2c(c1)sc1nc(=O)n(-c3cccc(Cl)c3)c(=O)n12	0.0251 µM [falling, full curve, poor fit]
O=C(Cn1ncc2c3ccccc3n(Cc3cccc(Cl)c3)c2c1=O)N1CCCCC1	12.6 µM [falling, partial curve]
COc1ccc(CN2C(=O)c3ccccc3C2C(=O)NC2CCCCCC2)c(OC)c1 (stereo not given)	25.1 µM [falling, single point]
COc1ccc2oc(=O)c(-c3nc4ccc(C)cc4[nH]3)cc2c1	0.316 µM [falling, full curve]
COc1ccc(Br)cc1CC1C(=O)Nc2ccccc21 (stereo not given)	25.1 µM [falling, partial curve]
CCC1Oc2ccc(C)cc2N(CC(=O)N(Cc2cccnc2)Cc2ccc(C)o2)C1=O (stereo not given)	31.6 µM [falling, partial curve]
COc1ccccc1OCC(=O)Sc1ccc(C)cc1	39.8 µM [rising, single point] [measured here: IkB-luc green channel]
CCN(CCCNC(=O)CCCN1C(=O)COc2ccc(C)cc21)c1cccc(C)c1	12.6 µM [falling, partial curve]
Cn1c(=O)cc(OCC(=O)N2CCN(c3ccccc3F)CC2)c2ccccc21	20 µM [falling, single point]
Cc1cc2oc(C(=O)N(Cc3ccc(N(C)C)cc3)CC3CCCO3)c(C)c2cc1C (stereo not given)	12.6 µM [falling, partial curve]
O=c1cc[nH]c2cccc(Cc3ccccc3)c12	12.6 µM [falling, partial curve]

Structural class, those above containing fluorine.
Structure (SMILES)	AC50
CCc1ccc(C2CC(=O)N(c3cccc(C(F)(F)F)c3)C3=C2C(=O)OC3)cc1 (stereo not given)	25.1 µM [falling, partial curve]
Cc1ccc(C)c(NC2=C(c3ccc(C(F)(F)F)cc3)C(=O)c3ccccc32)c1	15.8 µM [falling, partial curve]
Cn1c(=O)cc(OCC(=O)N2CCN(c3ccccc3F)CC2)c2ccccc21	20 µM [falling, single point]

Next part.

Structure (SMILES)	AC50
CCN1CCc2c(sc(NC(=O)CSc3ccccc3)c2-c2nc3ccccc3s2)C1	39.8 µM [falling, single point]
COc1ccc(-c2noc(-c3cc(C(C)C)[nH]n3)n2)cc1	1 µM [rising, partial curve]
Cc1ccc(OCCSc2nc3ccccc3n2CC(=O)N2CCCCC2)cc1C	20 µM [falling, partial curve]
COC(=O)c1ccccc1NC(=O)CCn1nc(C)c2c(C)n(-c3ccccc3)nc2c1=O	2 µM [falling, full curve]
CCOc1cccc2sc(NC(=O)c3ccc(S(=O)(=O)N4CCc5ccccc54)cc3)nc12	0.398 µM [falling, full curve]
Cc1csc(NC(=O)C(NS(=O)(=O)c2ccc(Br)s2)c2ccccc2)n1 (stereo not given)	15.8 µM [falling, partial curve]
COc1ccc(CN2CCN(c3ncnc4sc5c(c34)CCCC5)CC2)cc1F	10 µM [falling, partial curve]
CCCCN(C)C(=O)c1ccc2c(c1)N(Cc1cccc(Cl)c1)C(=O)c1ccccc1S2=O (stereo not given)	39.8 µM [falling, single point]
CCOC(=O)CSc1nc2cc3c(cc2c(=O)n1CCCCCC(=O)NCc1ccc2c(c1)OCO2)OCO3	6.31 µM [rising, single point]
COc1cc(C2Nc3ccccc3-c3nnc(SCc4ccc(Cl)cc4)nc3O2)ccc1OCC(=O)O (stereo not given)	31.6 µM [falling, single point]
Cc1ccc2c(CC(=O)Nc3ccc(S(=O)(=O)Nc4nc(C)cc(C)n4)cc3)coc2c1	5.01 µM [falling, partial curve]
COC(=O)c1ccc(NC(=O)c2nn(C)c3c2COc2ccccc2-3)cc1	7.94 µM [falling, partial curve]
Cc1nn(CCCC(=O)NCCc2ccc(Cl)cc2)c(=O)c2nn(-c3ccccc3)c(C)c12	12.6 µM [falling, partial curve, poor fit]
COc1ccc(C2CC(=O)c3cc(-c4nc(-c5cccc([N+](=O)[O-])c5)cs4)c(=O)n(-c4ccccc4C)c3C2)cc1 (stereo not given)	15.8 µM [falling, single point]
Cc1ccc(-c2cc(NC(=O)COc3c(C)cc(C)cc3C)on2)cc1	2 µM [falling, partial curve]
O=C(NCc1ccccc1F)c1cccc(NC(=O)N2CCSc3ncccc32)c1	25.1 µM [falling, single point]
COc1ccc(C)cc1NC(=O)C1CCN(S(=O)(=O)c2cccc3cccnc23)CC1	12.6 µM [falling, partial curve]
CNc1nc2c(c(=O)[nH]c(=O)n2C)n1CCOC	20 µM [falling, partial curve]
Cc1ccc(NC(=O)Cc2nc(CSc3nnc(-c4ccc5c(c4)OCO5)o3)cs2)cc1	6.31 µM [falling, partial curve]
COc1ccc(-n2c(O)c(C=NC3CC3)c(=O)[nH]c2=O)cc1	10 µM [falling, partial curve]
